In patent US20080269291A1, “Chemical Compounds” (priority 2005, published 2008):
Some of these results come from one statement about several compounds together.

Target: T1, Recombinant human IKKβ (residues 1-737) (Homo sapiens, UniProt O14920)
T1 construct: Recombinant human IKKβ (residues 1-737); GST (C); made in house
T1 sequence (O14920 1-737): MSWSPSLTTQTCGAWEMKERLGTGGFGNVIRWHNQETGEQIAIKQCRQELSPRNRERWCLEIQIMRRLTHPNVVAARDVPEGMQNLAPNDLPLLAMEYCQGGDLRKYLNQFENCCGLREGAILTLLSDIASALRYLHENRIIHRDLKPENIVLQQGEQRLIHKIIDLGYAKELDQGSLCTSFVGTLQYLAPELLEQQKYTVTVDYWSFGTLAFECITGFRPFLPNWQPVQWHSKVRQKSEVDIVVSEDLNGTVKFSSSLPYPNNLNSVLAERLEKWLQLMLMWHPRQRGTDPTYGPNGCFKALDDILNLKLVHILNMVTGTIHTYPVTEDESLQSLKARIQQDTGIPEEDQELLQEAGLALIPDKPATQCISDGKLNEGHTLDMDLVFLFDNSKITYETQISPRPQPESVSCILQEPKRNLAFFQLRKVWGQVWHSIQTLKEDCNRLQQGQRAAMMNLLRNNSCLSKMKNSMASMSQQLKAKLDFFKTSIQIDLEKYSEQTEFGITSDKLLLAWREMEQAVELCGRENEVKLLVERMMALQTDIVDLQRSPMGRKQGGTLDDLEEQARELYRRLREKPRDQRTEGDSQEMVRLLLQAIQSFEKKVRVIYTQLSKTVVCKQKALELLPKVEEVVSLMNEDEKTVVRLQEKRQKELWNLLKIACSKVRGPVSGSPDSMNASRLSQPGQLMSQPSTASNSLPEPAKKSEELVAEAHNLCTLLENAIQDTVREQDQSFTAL
Test: IKK2 Assay (TR-FRET)
Type: biochemical
Conditions: activity against IKK2, IKK2 5 nM, GST-IκBα substrate 25 nM, ATP 1 μM, 30 minutes at room temperature
Procedure: Recombinant human IKKβ (residues 1-737) was expressed in baculovirus as a C-terminal GST-tagged fusion protein, and its activity was assessed using a time-resolved fluorescence resonance energy transfer (TR-FRET) assay. Briefly, IKK2 (5 nM final) diluted in assay buffer (50 mM HEPES, 10 mM MgCl2, 1 mM CHAPS pH 7.4 with 1 mM DTT and 0.01% w/v BSA) was added to wells containing various concentrations of compound or DMSO vehicle (3% final). The reaction was initiated by the addition of GST-IκBα substrate (25 nM final)/ATP (1 μM final), in a total volume of 30 μL. The reaction was incubated for 30 minutes at room temperature, then terminated by the addition of 15 μL of 50 mM EDTA. Detection reagent (15 μl) in buffer (100 mM HEPES pH 7.4, 150 mM NaCl and 0.1% w/v BSA) containing antiphosphoserine-licBa-32/36 monoclonal antibody 12C2 (Cell Signalling Technology, Beverly Mass., USA) labelled with W-1024 europium chelate (Wallac OY, Turku, Finland), and an APC-labelled anti-GST antibody (Prozyme, San Leandro, Calif., USA) was added and the reaction was further incubated for 60 minutes at room temperature. The degree of phosphorylation of GST-IκBα was measured using a Packard Discovery plate reader (Perkin-Elmer Life Sciences, Pangbourne, UK) as a ratio of specific 665 nm energy transfer signal to reference europium 620 nm signal.

Q: `CCS(=O)(=O)N1CCC(c2c[nH]c3c(C(N)=O)cc(O)cc23)CC1` [Example 1, 3-[1-(ethylsulfonyl)-4-piperidinyl]-5-hydroxy-1H-indole-7-carboxamide] was tested. Which pIC50 did it give?
A: ≥ 5.0

Q: How did the pIC50 turn out when `CCS(=O)(=O)N1CCC(c2c[nH]c3c(C(N)=O)cc(OCC4CC4)cc23)CC1` [Example 2, 5-[(cyclopropylmethyl)oxy]-3-[1-(ethylsulfonyl)-4-piperidinyl]-1H-indole-7-carboxamide] was run?
A: ≥ 5.0

Q: `CCCCCOc1cc(C(N)=O)c2[nH]cc(C3CCN(S(=O)(=O)CC)CC3)c2c1` [Example 3, 3-[1-(ethylsulfonyl)-4-piperidinyl]-5-(pentyloxy)-1H-indole-7-carboxamide] was tested. Which pIC50 did it give?
A: ≥ 5.0

Q: With `CCCCCCCCOc1cc(C(N)=O)c2[nH]cc(C3CCN(S(=O)(=O)CC)CC3)c2c1` [Example 4, 3-[1-(ethylsulfonyl)-4-piperidinyl]-5-(octyloxy)-1H-indole-7-carboxamide] as the compound, how does the pIC50 read?
A: ≥ 5.0

Q: With `CCCCCCCOc1cc(C(N)=O)c2[nH]cc(C3CCN(S(=O)(=O)CC)CC3)c2c1` [Example 5, 3-[1-(ethylsulfonyl)-4-piperidinyl]-5-(heptyloxy)-1H-indole-7-carboxamide] as the compound, how does the pIC50 read?
A: ≥ 5.0

Q: For `CCS(=O)(=O)N1CCC(c2c[nH]c3c(C(N)=O)cc(OCCc4ccccc4)cc23)CC1` [Example 6, 3-[1-(ethylsulfonyl)-4-piperidinyl]-5-[(2-phenylethyl)oxy]-1H-indole-7-carboxamide], which pIC50 is on record?
A: ≥ 5.0

Q: How did the pIC50 turn out when `CCS(=O)(=O)N1CCC(c2c[nH]c3c(C(N)=O)cc(OCCCc4ccccc4)cc23)CC1` [Example 7, 3-[1-(ethylsulfonyl)-4-piperidinyl]-5-[(3-phenylpropyl)oxy]-1H-indole-7-carboxamide] was run?
A: ≥ 5.0

Q: How did the pIC50 turn out when `CCS(=O)(=O)N1CCC(c2c[nH]c3c(C(N)=O)cc(OCCCl)cc23)CC1` [Example 8, 5-[(2-chloroethyl)oxy]-3-[1-(ethylsulfonyl)-4-piperidinyl]-1H-indole-7-carboxamide] was run?
A: ≥ 5.0

Q: `CCS(=O)(=O)N1CCC(c2c[nH]c3c(C(N)=O)cc(OCCCCOCc4ccccc4)cc23)CC1` [Example 9, 3-[1-(ethylsulfonyl)-4-piperidinyl]-5-({4-[(phenylmethyl)oxy]butyl}oxy)-1H-indole-7-carboxamide] was tested. Which pIC50 did it give?
A: ≥ 5.0

Q: With `CCS(=O)(=O)N1CCC(c2c[nH]c3c(C(N)=O)cc(OCCOCc4ccccc4)cc23)CC1` [Example 10, 3-[1-(ethylsulfonyl)-4-piperidinyl]-5-({2-[(phenylmethyl)oxy]ethyl}oxy)-1H-indole-7-carboxamide] as the compound, how does the pIC50 read?
A: ≥ 5.0

Q: Which pIC50 does the source give for `CCS(=O)(=O)N1CCC(c2c[nH]c3c(C(N)=O)cc(OCCCC(N)=O)cc23)CC1` [Example 12, 5-[(4-amino-4-oxobutyl)oxy]-3-[1-(ethylsulfonyl)-4-piperidinyl]-1H-indole-7-carboxamide] here?
A: ≥ 5.0

Q: `CCS(=O)(=O)N1CCC(c2c[nH]c3c(C(N)=O)cc(OCc4ccccc4)cc23)CC1` [Example 13, 3-[1-(ethylsulfonyl)-4-piperidinyl]-5-[(phenylmethyl)oxy]-1H-indole-7-carboxamide] was tested. Which pIC50 did it give?
A: ≥ 5.0

Q: `CCS(=O)(=O)N1CCC(c2c[nH]c3c(C(N)=O)cc(OCc4ccc(F)c(F)c4)cc23)CC1` [Example 15, 5-{[(3,4-difluorophenyl)methyl]oxy}-3-[1-(ethylsulfonyl)-4-piperidinyl]-1H-indole-7-carboxamide] was tested. Which pIC50 did it give?
A: ≥ 5.0

Q: `CCS(=O)(=O)N1CCC(c2c[nH]c3c(C(N)=O)cc(OCc4cccc(Cl)c4)cc23)CC1` [Example 16, 5-{[(3-chlorophenyl)methyl]oxy}-3-[1-(ethylsulfonyl)-4-piperidinyl]-1H-indole-7-carboxamide] was tested. Which pIC50 did it give?
A: ≥ 5.0

Q: Which pIC50 does the source give for `CCS(=O)(=O)N1CCC(c2c[nH]c3c(C(N)=O)cc(OCc4ccc(C(=O)OC)cc4)cc23)CC1` [Example 17, methyl 4-[({7-(aminocarbonyl)-3-[1-(ethylsulfonyl)-4-piperidinyl]-1H-indol-5-yl}oxy)methyl]benzoate] here?
A: ≥ 5.0

Q: With `CCS(=O)(=O)N1CCC(c2c[nH]c3c(C(N)=O)cc(OCc4ccc(F)cc4)cc23)CC1` [Example 18, 3-[1-(ethylsulfonyl)-4-piperidinyl]-5-{[(4-fluorophenyl)methyl]oxy}-1H-indole-7-carboxamide] as the compound, how does the pIC50 read?
A: ≥ 5.0

Q: With `CCS(=O)(=O)N1CCC(c2c[nH]c3c(C(N)=O)cc(OCc4cccc(C#N)c4)cc23)CC1` [Example 19, 5-{[(3-cyanophenyl)methyl]oxy}-3-[1-(ethylsulfonyl)-4-piperidinyl]-1H-indole-7-carboxamide] as the compound, how does the pIC50 read?
A: ≥ 5.0

Q: For `CCS(=O)(=O)N1CCC(c2c[nH]c3c(C(N)=O)cc(OCc4ccccc4CS(=O)(=O)c4ccccc4)cc23)CC1` [Example 20, 3-[1-(ethylsulfonyl)-4-piperidinyl]-5-[({2-[(phenylsulfonyl)methyl]phenyl}methyl)oxy]-1H-indole-7-carboxamide], which pIC50 is on record?
A: ≥ 5.0

Q: How did the pIC50 turn out when `CCS(=O)(=O)N1CCC(c2c[nH]c3c(C(N)=O)cc(OCc4ccccc4C#N)cc23)CC1` [Example 21, 5-{[(2-cyanophenyl)methyl]oxy}-3-[1-(ethylsulfonyl)-4-piperidinyl]-1H-indole-7-carboxamide] was run?
A: ≥ 5.0

Q: For `CCS(=O)(=O)N1CCC(c2c[nH]c3c(C(N)=O)cc(OCc4ccc5ccccc5c4)cc23)CC1` [Example 22, 3-[1-(ethylsulfonyl)-4-piperidinyl]-5-[(2-naphthalenylmethyl)oxy]-1H-indole-7-carboxamide], which pIC50 is on record?
A: ≥ 5.0

Q: How did the pIC50 turn out when `CCS(=O)(=O)N1CCC(c2c[nH]c3c(C(N)=O)cc(OCc4cccc(OC(F)(F)F)c4)cc23)CC1` [Example 23, 3-[1-(ethylsulfonyl)-4-piperidinyl]-5-[({3-[(trifluoromethyl)oxy]phenyl}methyl)oxy]-1H-indole-7-carboxamide] was run?
A: ≥ 5.0

Q: How did the pIC50 turn out when `CCS(=O)(=O)N1CCC(c2c[nH]c3c(C(N)=O)cc(OCc4ccc(C(F)(F)F)cc4F)cc23)CC1` [Example 24, 3-[1-(ethylsulfonyl)-4-piperidinyl]-5-({[2-fluoro-4-(trifluoromethyl)phenyl]methyl}oxy)-1H-indole-7-carboxamide] was run?
A: ≥ 5.0

Q: How did the pIC50 turn out when `CCS(=O)(=O)N1CCC(c2c[nH]c3c(C(N)=O)cc(OCc4cc(F)cc(F)c4)cc23)CC1` [Example 25, 5-{[(3,5-difluorophenyl)methyl]oxy}-3-[1-(ethylsulfonyl)-4-piperidinyl]-1H-indole-7-carboxamide] was run?
A: ≥ 5.0

Q: For `CCS(=O)(=O)N1CCC(c2c[nH]c3c(C(N)=O)cc(OCc4cccc(OC(F)F)c4)cc23)CC1` [Example 26, 5-[({3-[(difluoromethyl)oxy]phenyl}methyl)oxy]-3-[1-(ethylsulfonyl)-4-piperidinyl]-1H-indole-7-carboxamide], which pIC50 is on record?
A: ≥ 5.0

Q: How did the pIC50 turn out when `CCS(=O)(=O)N1CCC(c2c[nH]c3c(C(N)=O)cc(OCc4ccc(Cl)c(Cl)c4)cc23)CC1` [Example 27, 5-{[(3,4-dichlorophenyl)methyl]oxy}-3-[1-(ethylsulfonyl)-4-piperidinyl]-1H-indole-7-carboxamide] was run?
A: ≥ 5.0

Q: `CCS(=O)(=O)N1CCC(c2c[nH]c3c(C(N)=O)cc(OCc4ccc(Cl)cc4)cc23)CC1` [Example 28, 5-{[(4-chlorophenyl)methyl]oxy}-3-[1-(ethylsulfonyl)-4-piperidinyl]-1H-indole-7-carboxamide] was tested. Which pIC50 did it give?
A: ≥ 5.0

Q: `CCS(=O)(=O)N1CCC(c2c[nH]c3c(C(N)=O)cc(Oc4ccc(C)cc4)cc23)CC1` [Example 29, 3-[1-(ethylsulfonyl)-4-piperidinyl]-5-[(4-methylphenyl)oxy]-1H-indole-7-carboxamide] was tested. Which pIC50 did it give?
A: ≥ 5.0

Q: For `CCS(=O)(=O)N1CCC(c2c[nH]c3c(C(N)=O)cc(Oc4ccc(OC)cc4)cc23)CC1` [Example 30, 3-[1-(ethylsulfonyl)-4-piperidinyl]-5-{[4-(methyloxy)phenyl]oxy}-1H-indole-7-carboxamide], which pIC50 is on record?
A: ≥ 5.0
